{"source": "PubChem BioAssay AID504834", "about": "(National Center for Advancing Translational Sciences (NCATS), 2011)", "note": "About 22,000 (6.9%) of roughly 320,000 compounds were called active. Inconclusive means that the source gave no clear call. Such entries were picked first, then a sample of the others. Calls follow the shape of the dose curve; as a rule, active = well fitted inhibition curve with a large enough effect; inconclusive = small, poorly fitted or top-dose-only effect, or another doubt; inactive = no such curve, though single readings can be large or run the other way. Potencies of inconclusive entries are doubtful fits and often do not repeat. Potency is read from the fitted curve at half-maximal effect."}
{"experiment": "Primary qHTS for delayed death inhibitors of the malarial parasite plastid, 96 hour incubation", "details": "P. falciparum luciferase reporter growth; series mostly up to 28.7 µM", "summary_of_the_method": "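Plates of compound plus infected erythrocytes (2% hematocrit, 0.05% parasitemia final) incubate 96 hours, 37 C, 5% CO2. Detection reagent added; reduced luminescence from the parasites' luciferase reporter flags inhibition.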"}
{"smiles": "CC1(C)Cc2c(ccc3ccccc23)C(NNC(=O)c2cccnc2)=N1", "Potency": "inactive"}
{"smiles": "Cc1ccc(S(=O)(=O)N2CCC(C(=O)OCCOc3cccc(C)c3)CC2)cc1", "Potency": "inactive"}
{"smiles": "C/C(N)=C(/C#N)C(=O)COC(=O)c1cc(-c2ccc(Br)cc2)nc2ccccc12", "Potency": "inconclusive: 18.5 µM [inhibitor, single point]"}
{"smiles": "CCCCOP(=O)(c1ccc(N(C)C)cc1)C(O)c1ccc(OC)c(OC)c1", "note": "(stereo not given)", "Potency": "inconclusive: 5.86 µM [inhibitor, partial curve, poor fit]"}
{"smiles": "O=C(OCc1cc([N+](=O)[O-])cc2c1OCOC2)c1cccnc1SC(F)F", "Potency": "inactive"}
{"smiles": "CCN(CC)c1ccc(/C=N/N2CCN(Cc3ccc(Cl)cc3)CC2)c(O)c1", "Potency": "inconclusive: 11.7 µM [inhibitor, single point]"}
{"smiles": "O=C(NCc1ccc(Cl)cc1)C1CCN(S(=O)(=O)c2ccc(N3CCCC3=O)cc2)CC1", "Potency": "active: 13.1 µM"}
{"smiles": "CC(/C=C/c1ccco1)=N/NC(=O)c1ccc(C)nc1", "Potency": "inactive"}
{"smiles": "CC1CCCCN1S(=O)(=O)c1ccc(C(=O)Nc2ccccc2-c2nc3ccccc3[nH]2)cc1", "note": "(stereo not given)", "Potency": "inconclusive: 1.04 µM [inhibitor, partial curve, poor fit]"}
{"smiles": "Cc1nc2sccn2c(=O)c1CCN1CCC(=C(c2ccc(F)cc2)c2ccc(F)cc2)CC1", "Potency": "active: 10.4 µM"}
{"smiles": "COC(=O)[C@@]1(Cc2ccc(OC)cc2)[C@H]2c3cc(C(=O)N(C)C)[nH]c3C[C@H]2CN1C(=O)c1ccccc1", "Potency": "inconclusive: 10.4 µM [inhibitor, partial curve, poor fit]"}
{"smiles": "O=C(NCc1nnc(SCC(=O)N2CCN(c3ccccc3)CC2)o1)c1c(F)cccc1Cl", "Potency": "active: 10.4 µM"}
{"smiles": "O=C(CS(=O)CC(=O)N(CC(=O)NC1CCCC1)c1ccc2c(c1)OCCO2)Nc1ccc(F)cc1", "note": "(stereo not given)", "Potency": "inconclusive: 0.0026 µM [inhibitor, full curve, poor fit]"}
{"smiles": "Cc1ccc(CNC(=O)C2CCC(=O)N2Cc2ccccc2Cl)cc1", "note": "(stereo not given)", "Potency": "inconclusive: 1.31 µM [inhibitor, partial curve, poor fit]"}
{"smiles": "Cc1cccc(-n2ccc(=O)c(C(=O)Nc3ccc(S(=O)(=O)Nc4nccc(C)n4)cc3)n2)c1", "Potency": "inconclusive: 11.7 µM [inhibitor, partial curve, poor fit]"}
{"smiles": "Cc1cccn2c(=O)c(/C=N/O)c(N3CCCC3)nc12", "Potency": "inactive"}
{"smiles": "O=C(Nc1nc2ccc(Cl)cc2s1)c1ccc(Br)o1", "Potency": "inactive"}
{"smiles": "Cc1cc(=O)[nH]c(N/N=C/c2ccccc2Cl)n1", "Potency": "inconclusive: 18.5 µM [inhibitor, single point]"}
{"smiles": "COCCNC(=S)N1CCN(c2nc(-c3ccc(F)cc3)cs2)CC1", "Potency": "inconclusive: 1.85 µM [inhibitor, partial curve, poor fit]"}
{"smiles": "COC(=O)c1c(NC(=O)C2CC(C)=C(C)CC2C(=O)O)sc2c1CCCCC2", "note": "(stereo not given)", "Potency": "inconclusive: 18.5 µM [inhibitor, single point]"}
{"smiles": "Cc1ccccc1C(=O)NC1CCN(Cc2nnnn2C(C)(C)C)CC1", "Potency": "inactive"}
{"smiles": "Cc1ccccc1C1=NC(C(F)(F)F)(C(F)(F)F)c2c(n(-c3ccc(F)cc3)c(=O)[nH]c2=O)N1", "Potency": "active: 11.7 µM"}
{"smiles": "COC(=O)[C@H]1C[C@@H]1[C@H](NC(=O)c1ccccc1)c1ccccc1", "Potency": "inconclusive: 18.5 µM [inhibitor, single point]"}
{"smiles": "Cc1oc(S(=O)(=O)N2CCCCC2)cc1NC(=O)Nc1ccccc1", "Potency": "inconclusive: 0.147 µM [inhibitor, partial curve, poor fit]"}
{"smiles": "Cc1ccc(NC(=O)c2ccc3c(c2)C(=O)N(c2cc(C)ccc2C)C3=O)nc1", "Potency": "inactive"}
{"smiles": "Cc1cc(C(F)(F)F)nc(SCC(=O)Nc2ccccc2)n1", "Potency": "inactive"}
{"smiles": "CC1CCC(C(C)C)C(OCC(O)CNC(C)(C)C)C1", "note": "(stereo not given)", "Potency": "active: 5.22 µM"}
{"smiles": "O=C1CC(=O)Nc2cc(S(=O)(=O)Nc3cccc(C(F)(F)F)c3)ccc2N1", "Potency": "inactive"}
{"smiles": "Cc1cccc(N(C)S(=O)(=O)c2ccc3c(c2)CCC(=O)N3)c1", "Potency": "inconclusive: 18.5 µM [inhibitor, single point]"}
{"smiles": "CCC1CCCCN1CCCn1c(=S)[nH]c2ccccc2c1=O", "note": "(stereo not given)", "Potency": "inconclusive: 10.4 µM [inhibitor, partial curve, poor fit]"}
{"smiles": "COc1ccc(Br)cc1CN(C)C(=O)c1ccncc1", "Potency": "inactive"}
{"smiles": "CC1=C/C(=N\\NC(=S)Nc2cccnc2)CC(C)(C)C1", "Potency": "active: 2.94 µM"}
{"smiles": "COc1ccc(-c2c(C(C)=O)c(C)nc3sc4c(=O)[nH]nnc4c23)cc1", "Potency": "inactive"}
{"smiles": "CC(C)CNC(=S)N1CCC(C(=O)c2ccc(F)cc2)CC1", "Potency": "inconclusive: 18.5 µM [inhibitor, single point]"}
{"smiles": "O=S(=O)(Nc1cccc2cccnc12)c1ccccc1", "Potency": "inactive"}
{"smiles": "CCC(=O)NCCCOc1ccccc1", "Potency": "inconclusive: 0.104 µM [inhibitor, full curve, poor fit]"}
{"smiles": "COc1ccc(Cn2nnc3c(=O)[nH]c(C4CCCN(C(=O)c5ccccc5)C4)nc32)cc1", "note": "(stereo not given)", "Potency": "active: 11.7 µM"}
{"smiles": "O=C(Nc1nc2ccc([N+](=O)[O-])cc2s1)c1ccco1", "Potency": "inactive"}
{"smiles": "Nc1c(N=Nc2ccccc2F)c(=O)[nH]n1-c1ccccc1", "Potency": "inactive"}
{"smiles": "COc1ccc([C@]23Cc4cc(OC)c(OC)cc4C(O2)c2c(cc(-c4ccccc4)oc2=O)O3)cc1", "Potency": "inconclusive: 2.39 µM [inhibitor, single point]"}
{"smiles": "O=c1c2nccnc2[nH]c(=S)n1Cc1ccccc1Cl", "Potency": "inconclusive: 0.233 µM [inhibitor, full curve]"}
{"smiles": "O=C(COc1ccc(S(=O)(=O)N2CCOCC2)cc1)N1CCN(Cc2ccc3c(c2)OCO3)CC1", "Potency": "inconclusive: 8.28 µM [inhibitor, partial curve, poor fit]"}
{"smiles": "COc1ccc(C(=O)N/C(=C\\c2cn(C)c3ccccc23)C(=O)NCCCn2ccnc2)cc1", "Potency": "inconclusive: 18.5 µM [inhibitor, single point]"}
{"smiles": "COc1ccc(OC)c(CCNC(=O)C2CCN(c3ncnc4c3nc3n4CCCCC3)CC2)c1", "Potency": "inconclusive: 18.5 µM [inhibitor, single point]"}
{"smiles": "Cc1cc(NC(=O)c2ccc(F)cc2)no1", "Potency": "inactive"}
{"smiles": "COc1ccccc1C(=O)Oc1ccccc1C(=O)Nc1ccccc1", "Potency": "inconclusive: 4.15 µM [inhibitor, partial curve]"}
{"smiles": "CCCn1c2c(c(O)c(C(=O)Nc3ccc(OC)cc3)c1=O)CCCC2", "Potency": "inconclusive: 10.4 µM [inhibitor, partial curve]"}
{"smiles": "CCCCNS(=O)(=O)c1ccc(NC(=O)Cc2ccc(OC)cc2)cc1", "Potency": "inactive"}
{"smiles": "Cc1cc(S(=O)(=O)N2CCN=C2c2ccccc2)c(C)cc1Cl", "Potency": "inconclusive: 18.5 µM [inhibitor, single point]"}
{"smiles": "COc1cccc(/C=C/C(=O)c2cccc([N+](=O)[O-])c2)c1", "Potency": "inactive"}
{"smiles": "O=C(CCSCc1cccc(F)c1)NCc1ccc(F)cc1", "Potency": "inconclusive: 6.57 µM [inhibitor, partial curve]"}
{"smiles": "Cc1ccc(NC(=O)N(Cc2cccs2)Cc2cc3cc4c(cc3[nH]c2=O)OCO4)cc1", "Potency": "inconclusive: 8.28 µM [inhibitor, partial curve]"}
{"smiles": "CC(=O)[C@H]1CC[C@H]2[C@@H]3C=CC4=CC(=O)CC[C@@]4(C)[C@H]3CC[C@]12C", "Potency": "inactive"}
{"smiles": "Cn1ncc([N+](=O)[O-])c1C(=O)Nc1ccc(Cl)cc1", "Potency": "inactive"}
{"smiles": "COc1ccc(CCC(=O)NCCS(=O)(=O)N2CCN(c3ccc(F)cc3)CC2)cc1", "Potency": "inconclusive: 10.4 µM [inhibitor, partial curve]"}
{"smiles": "Cc1ccc2[nH]c3c(c2c1)CCNC3=O", "Potency": "inconclusive: 0.037 µM [inhibitor, full curve, poor fit]"}
{"smiles": "Cc1ccc(OCCNC(=O)/C=C/c2ccc([N+](=O)[O-])cc2)cc1C", "Potency": "inconclusive: 0.0586 µM [inhibitor, full curve, poor fit]"}
{"smiles": "Cn1c(=O)oc2cc(S(=O)(=O)N3CCC(C(=O)NCc4ccc(F)cc4)CC3)ccc21", "Potency": "inconclusive: 18.5 µM [inhibitor, single point]"}
{"smiles": "Clc1ccccc1Nc1c2c(nc3ncnn13)CCC2", "Potency": "active: 3.29 µM"}
{"smiles": "COc1ccc(-c2nc(-n3c(C)c(C(C)=O)c(C(C)=O)c3C)sc2C)cc1", "Potency": "inactive"}
{"smiles": "CCNC(=O)NC(=O)COC(=O)CCCSc1nc2ccccc2[nH]1", "Potency": "inconclusive: 16.5 µM [inhibitor, single point]"}
{"smiles": "CCOc1ccc(NC(=O)CN(C)C(=O)Cc2sc(C)nc2-c2ccc(F)cc2)cc1OCC", "Potency": "inconclusive: 11.7 µM [inhibitor, single point]"}
{"smiles": "COc1ccc(CCN(C)Cc2ccc(C(=O)Nc3ccccc3)cc2)cc1OC", "Potency": "inconclusive: 18.5 µM [inhibitor, single point]"}
{"smiles": "O=C(Nc1ccc(O)c2c(=O)cc(-c3ccccc3Cl)oc12)c1cccc(Cl)c1", "Potency": "inconclusive: 18.5 µM [inhibitor, single point]"}
{"smiles": "Oc1ccc(O)c(/C(=N/Nc2ccccc2)c2ccccc2)c1", "Potency": "inconclusive: 16.5 µM [inhibitor, single point]"}
{"smiles": "O=C(/C=C/c1ccccc1Cl)NCc1cccs1", "Potency": "inactive"}
{"smiles": "CCn1ncc([N+](=O)[O-])c1C(=O)n1nc(C)cc1C", "Potency": "inactive"}
{"smiles": "Cc1nn(C)cc1C(=O)Nc1c(C)nn(Cc2ccccc2Cl)c1C", "Potency": "inconclusive: 0.37 µM [inhibitor, full curve, poor fit]"}
{"smiles": "O=C(NC1(C(F)(F)F)N=C(c2ccccc2)NC1=O)c1ccc(Cl)cc1Cl", "note": "(stereo not given)", "Potency": "inconclusive: 4.15 µM [inhibitor, single point]"}
{"smiles": "CCCCn1cc2c(c1-c1cccc(C)c1)c(=O)n(C)c(=O)n2C", "Potency": "inconclusive: 10.4 µM [inhibitor, single point]"}
